# Results published in PubChem BioAssay AID504444 (National Center for Advancing Translational Sciences (NCATS), 2011).
# About 7,500 (2.1%) of roughly 360,000 compounds were called active. Inconclusive means that the source gave no clear call. Such entries were picked first, then a sample of the others. The call rests on the fitted dose curve; in most records, active means well fitted inhibition curve with a large enough effect; inconclusive means small, poorly fitted or top-dose-only effect, or effect the other way; inactive means flat fitted curve, though single readings scatter. Potencies beside an inconclusive call are fits to weak or partial responses and may not hold up.
# Experiment: Nrf2 qHTS screen for inhibitors; further: nearly all actives have a fitted effect of over 60% in size
# Conditions: A549 ARE-Fluc reporter, luciferase luminescence, 18-24 h; activity change, negative = inhibition: at 46 µM (top of the series)
# In short: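 Concentration-response testing used A549 ARE_Fluc cells at 5000 cells/well. Following an 18-24 h compound incubation, viability was read by fluorescence (Ex 405/Em 525) and luciferase output by luminescence.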
# On the % scale 0 is the no-effect control and ±100 the full control effect; potency means the concentration at half of the fitted maximal effect.
Compound,Potency,"activity change, negative = inhibition"
CC(=O)NC(CC(=O)OCC(=O)c1cc(C)ccc1C)c1ccccc1 (stereo unspecified),"inconclusive: 10.3 µM [falling, partial curve]",–
COc1ccc(Cn2c(C)nc3c(c2=O)c2nc4ccccc4nc2n3Cc2ccco2)cc1,active: 18.4 µM,–
COc1cccc(OCc2cc(=O)n3cc(C)sc3n2)c1,"inconclusive: 2.31 µM [activator, single point]",–
CC1=C(C(=O)NC2CCC(C)CC2)C2(CCC(C)CC2)OC1=O (stereo unspecified),"inconclusive: 29.1 µM [falling, single point]",–
Cc1cc(=O)cc(C)n1-c1ccc2c(c1)nc(C)n2-c1ccccc1,"inconclusive: 23.1 µM [falling, partial curve]",–
C=CCS/C(N)=N\N=C\c1c(O)ccc2ccccc12,"inconclusive: 18.4 µM [activator, single point]",–
O=C(Nc1ccc(F)cc1)C1C(c2ccccc2)C1(Cl)Cl (stereo unspecified),"inconclusive: 18.4 µM [falling, partial curve]",–
N/C(=N\OC(=O)/C=C/c1ccccc1Cl)c1ccccn1,"inconclusive: 3.66 µM [activator, partial curve, poor fit]",–
O=C(O)COc1ccc(Cl)cc1C1CCCCC1,"inconclusive: 11.6 µM [falling, partial curve]",–
CC(C)=C1Cc2ccccc2C1=O,–,inactive: 0%
N=c1c2c(n(Cc3ccc(F)cc3)c3c1CCC3)CCC2,"inconclusive: 1.46 µM [falling, full curve, poor fit]",–
Cc1ccc(-c2csc3nc(CN(C)Cc4ccccc4)[nH]c(=O)c23)cc1,"inconclusive: 4.11 µM [activator, full curve, poor fit]",–
Clc1ccc(-c2noc3ncnc(N4CCCCC4)c23)cc1,–,inactive: -21.2%
O=C(Nc1ccc(Cl)cc1F)C1CC(=O)N(Cc2ccco2)C1 (stereo unspecified),"inconclusive: 3.26 µM [activator, single point]",–
CC(C)(C)C(=O)CC(=O)Nc1ccc(Cl)c(N)c1,"inconclusive: 9.2 µM [activator, partial curve]",–
CCOc1cc(Cl)c(S(=O)(=O)n2cc(C)nc2CC)cc1Cl,active: 8.2 µM,–
O=C(NCCCN1CCOCC1)c1ccc2c(c1)N(Cc1cccc(Cl)c1)C(=O)CS2,"inconclusive: 8.2 µM [falling, partial curve, poor fit]",–
COC(=O)CN1C(=O)N/C(=C/c2ccccc2OC)C1=O,"inconclusive: 16.4 µM [activator, partial curve, poor fit]",–
COc1cccc(NC(=O)CN(C)S(=O)(=O)c2ccc3c(c2)n(C)c(=O)c(=O)n3C)c1,–,inactive: 2.92%
Cc1[nH]c2ccccc2c1/C=N/NC(=S)NC(C)C,active: 14.6 µM,–
CN(C)c1ccc(CNS(=O)(=O)c2csc(C(N)=O)c2)cc1,"inconclusive: 14.6 µM [falling, partial curve]",–
CCOC(=O)c1ccc(NC(=O)Nc2ccccn2)cc1,"inconclusive: 8.2 µM [activator, partial curve]",–

Compound,Potency,"activity change, negative = inhibition"
CC(=O)OC(/C(O)=C(\C#N)c1nc2ccccc2[nH]1)c1ccccc1 (stereo unspecified),"inconclusive: 4.11 µM [falling, partial curve]",–
COc1cccc(NC(=O)Nc2cc(-c3cn4cccnc4n3)ccc2OC)c1,"inconclusive: 14.6 µM [activator, partial curve, poor fit]",–
CCCc1c(NC(=O)Nc2ccc(F)cc2)cnn1-c1ccccc1,"inconclusive: 5.8 µM [activator, partial curve]",–
CCn1cc2nc(SCc3ccccc3)n(Cc3ccc(C)cc3)c(=O)c2n1,"inconclusive: 18.4 µM [falling, single point]",–
COc1cccc(-n2c(SCc3cc(=O)oc4cc(O)c(O)cc34)nc3ccccc3c2=O)c1,"inconclusive: 7.31 µM [activator, partial curve, poor fit]",–
CC(=NNc1nc2ccccc2o1)c1cc2ccccc2cn1,"inconclusive: 0.092 µM [falling, full curve, poor fit]",–
C=CCn1c(=NC(=O)c2ccccc2[N+](=O)[O-])sc2cc(S(C)(=O)=O)ccc21,–,inactive: -1.59%
Cc1ccsc1C(=O)OCC(=O)N1CC(C)CC(C)C1 (stereo unspecified),–,inactive: 5.68%
CC1CCC(N2CCN(c3ccc([N+](=O)[O-])cc3)CC2)CC1 (stereo unspecified),"inconclusive: 20.6 µM [activator, partial curve, poor fit]",–
COc1cccc(C(=O)Nc2nnc(S(=O)(=O)N3CCCCC3)s2)c1,"inconclusive: 1.64 µM [falling, full curve, poor fit]",–
Clc1ccc(/C=N/NC(=Nc2ccccc2)c2ccccn2)c(Cl)c1,"inconclusive: 18.4 µM [activator, partial curve]",–
CC(C)(C)c1ccc(-n2nc(C#N)c(Cl)cc2=O)cc1,"inconclusive: 18.4 µM [activator, single point]",–
CCOc1cc(/C=C(/C#N)c2ccc(Cl)cc2)cc(Cl)c1OCC(=O)O,active: 8.2 µM,–
COc1ccc(Nc2nc(N3CCOCC3)nc(N3CCOCC3)n2)cc1Cl,"inconclusive: 25.9 µM [falling, single point]",–
CCCc1nc(-c2cc3ccccc3[nH]c2=O)no1,"inconclusive: 11.6 µM [activator, partial curve, poor fit]",–
CC(C(=O)N1CCN(c2ccccc2)CC1)c1ccc([N+](=O)[O-])cc1 (stereo unspecified),"inconclusive: 29.1 µM [falling, single point]",–
CN(CCOc1ccc(Cl)cc1)Cc1cccc(S(=O)(=O)N(C)C)c1,"inconclusive: 23.1 µM [falling, single point]",–
Cc1cc(C)c(C#N)c(Sc2ccccc2N)n1,"inconclusive: 14.6 µM [activator, partial curve, poor fit]",–
COc1cc(/C=N/NC(=O)CCc2c(C)n[nH]c2C)cc(OC)c1OC,"inconclusive: 2.31 µM [falling, partial curve, poor fit]",–
COc1ccc(N2CC(C(=O)Nc3ccccc3-c3nc(-c4ccc(C)cc4)no3)CC2=O)cc1 (stereo unspecified),–,inactive: 20.1%
CC(=O)C(C)n1c(CN(C)Cc2ccccc2)nc2c1c(=O)n(C)c(=O)n2C (stereo unspecified),"inconclusive: 23.1 µM [falling, single point]",–
CCn1cnc2cc(NC(=O)c3ccc(C)cc3)ccc21,"inconclusive: 3.26 µM [activator, partial curve]",–

Compound,Potency,"activity change, negative = inhibition"
C#CCN1C(=O)S/C(=C\c2cc3c(cc2OC)OCO3)C1=O,"inconclusive: 32.6 µM [falling, partial curve, poor fit]",–
COc1ccc(NC(=O)c2ccccc2NC(=O)C2CCCCC2C(=O)O)cc1 (stereo unspecified),–,inactive: 11.4%
Cc1ccc(-n2cc(CN3CCC(CO)(Cc4cccc(C(F)(F)F)c4)CC3)cn2)cc1,"inconclusive: 11.6 µM [activator, partial curve]",–
CC(=O)Nc1ccc(NC(=O)CN2CCN(c3cccc(C(F)(F)F)c3)CC2)cc1,"inconclusive: 23.1 µM [falling, partial curve]",–
O=C(COc1cccc2cccnc12)Nc1cccc(S(=O)(=O)N2CCCC2)c1,"inconclusive: 20.6 µM [falling, single point]",–
Cn1c(=O)c2c(nc(NCc3ccccc3)n2Cc2ccc(Cl)c(Cl)c2)n(C)c1=O,"inconclusive: 29.1 µM [falling, single point]",–
O=C(NCCOc1ccccc1Cl)c1ncn[nH]1,–,inactive: 10.5%
O=C(CN1CCOCC1)Nc1ccccc1,"inconclusive: 6.51 µM [falling, partial curve, poor fit]",–
CCC(C(=O)Nc1ccccc1OC)n1c(C(=O)OC)cc2ccsc21 (stereo unspecified),"inconclusive: 1.84 µM [activator, partial curve, poor fit]",–
CC(=O)c1cccc(OCc2cc(C(=O)N3CCSCC3)no2)c1,"inconclusive: 9.2 µM [activator, partial curve]",–
O=C(CN(c1ccccc1F)S(=O)(=O)c1ccccc1)Nc1ccc2c(c1)OCCO2,"inconclusive: 20.6 µM [activator, partial curve, poor fit]",–
CCOC(=O)C1=C(C)NC(C)=C(C(=O)OCC)C1c1sccc1C,"inconclusive: 7.31 µM [activator, single point]",–
CCCCOC(=O)c1ccc(Nc2nc3ccc(C)cc3n3cnnc23)cc1,"inconclusive: 3.66 µM [activator, full curve, poor fit]",–
O=[N+]([O-])c1ccc(Cl)cc1C=NNc1ccccn1,"inconclusive: 7.31 µM [activator, full curve, poor fit]",–
CCCNS(=O)(=O)c1ccc2c(c1)CCCN2C(C)=O,"inconclusive: 10.3 µM [falling, partial curve, poor fit]",–
CN(C)S(=O)(=O)c1ccc(NC(=O)/C=C/c2ccccc2Cl)cc1,"inconclusive: 20.6 µM [falling, partial curve, poor fit]",–
Cc1cc(CNC(=O)[C@]2(C(F)(F)F)C[C@H](CCC3CCCCC3)CCCO2)nn1C,–,inactive: 0.237%
OCC1(Cc2ccccc2)CCN(Cc2cnc(-c3cccc4ccccc34)nc2)CC1,"inconclusive: 29.1 µM [activator, single point]",–
COc1ccccc1C1/C(=C(/O)c2ccc(C)cc2)C(=O)C(=O)N1CC(C)O (stereo unspecified),–,inactive: -10.7%
CC(C)n1cnc2c(oc3ccccc32)c1=O,"inconclusive: 1.03 µM [activator, partial curve]",–
O=C1c2ccccc2NC(c2cccc(F)c2)N1Cc1ccccc1 (stereo unspecified),"inconclusive: 18.4 µM [falling, single point]",–
COc1ccc(C2C(C#N)=C(N)Oc3c2c(-c2ccccc2)nn3-c2ccccc2)c(OC)c1OC (stereo unspecified),"inconclusive: 20.6 µM [falling, single point]",–

# 5 structures out of the list, ordered by count of non-hydrogen atoms, rising.
Compound,Potency,"activity change, negative = inhibition"
CCn1cnc2cc(NC(=O)c3ccc(C)cc3)ccc21,"inconclusive: 3.26 µM [activator, partial curve]",–
CCOc1cc(Cl)c(S(=O)(=O)n2cc(C)nc2CC)cc1Cl,active: 8.2 µM,–
COc1cccc(NC(=O)Nc2cc(-c3cn4cccnc4n3)ccc2OC)c1,"inconclusive: 14.6 µM [activator, partial curve, poor fit]",–
Cn1c(=O)c2c(nc(NCc3ccccc3)n2Cc2ccc(Cl)c(Cl)c2)n(C)c1=O,"inconclusive: 29.1 µM [falling, single point]",–
O=C(NCCCN1CCOCC1)c1ccc2c(c1)N(Cc1cccc(Cl)c1)C(=O)CS2,"inconclusive: 8.2 µM [falling, partial curve, poor fit]",–
